# Measured values published in the supplement of paper PMC8728848.
# The list shows a part of the results.
# B1: CREG (Mus musculus), O88668 (protein)
# chain: MAARAPELARSLLAALLAPALVALLVSPASGRGGRDHGDWDVDRRLPPLPPREDGPRVARFVTHVSDWGSLATISTIKEVRGWPFADIISISDGPPGEGTGEPYMYLSPLQQAVSDLQENPEATLTMSLAQTVYCRNHGFDPQSPLCVHIMMSGTVTKVNKTEEDYARDSLFVRHPEMKHWPSSHNWFFAKLKISRIWVLDYFGGPKVVTPEEYFNVTLQ
# Assays:
# Test in all cases: glycan array binding signal (z-score within array); higher = stronger binding
# Conditions in all cases: glycan notation: IUPAC condensed, linker removed
# Fuc(a1-2)Gal = target: Fuc(a1-2)Gal
# How it was run: (§1)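 Glycan array data came from 3228 arrays in the Consortium for Functional Glycomics database, and only arrays with an available protein sequence were kept. Glycan names were put into IUPAC-condensed notation, and columns mapping to the same glycan were averaged. The binding signal is a within-array Z-score, averaged across arrays of one protein sequence run at different concentrations or buffers and across linkers. A negative Z-score can be read as non-binding.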
# Fuc(a1-2)Gal(b1-3)GalNAc = target: Fuc(a1-2)Gal(b1-3)GalNAc
# How it was run: as §1
# [1] = target: Fuc(a1-2)Gal(b1-3)GalNAc(a1-3)[Fuc(a1-2)]Gal(b1-4)Glc
# How it was run: as §1
# [2] = target: Fuc(a1-2)Gal(b1-3)GalNAc(a1-3)[Fuc(a1-2)]Gal(b1-4)GlcNAc
# How it was run: as §1
# [3] = target: Fuc(a1-2)Gal(b1-3)GalNAc(b1-3)Gal
# How it was run: as §1
# [4] = target: Fuc(a1-2)Gal(b1-3)GalNAc(b1-3)Gal(a1-4)Gal(b1-4)Glc
# How it was run: as §1
# [5] = target: Fuc(a1-2)Gal(b1-3)GalNAc(b1-4)[Neu5Ac(a2-3)]Gal(b1-4)Glc
# How it was run: as §1
# Fuc(a1-2)Gal(b1-3)GlcNAc = target: Fuc(a1-2)Gal(b1-3)GlcNAc
# How it was run: as §1
# [6] = target: Fuc(a1-2)Gal(b1-3)GlcNAc(b1-2)Man(a1-3)[Fuc(a1-2)Gal(b1-3)GlcNAc(b1-2)Man(a1-6)]Man(b1-4)GlcNAc(b1-4)GlcNAc
# How it was run: as §1
# [7] = target: Fuc(a1-2)Gal(b1-3)GlcNAc(b1-3)Gal(b1-4)Glc
# How it was run: as §1
# [8] = target: Fuc(a1-2)Gal(b1-3)GlcNAc(b1-3)[Fuc(a1-3)[Gal(b1-4)]GlcNAc(b1-6)]Gal(b1-4)Glc
# How it was run: as §1
# [9] = target: Fuc(a1-2)Gal(b1-3)[Fuc(a1-4)]GlcNAc
# How it was run: as §1
# [10] = target: Fuc(a1-2)Gal(b1-3)[Fuc(a1-4)]GlcNAc(b1-2)Man(a1-3)[Fuc(a1-2)Gal(b1-3)[Fuc(a1-4)]GlcNAc(b1-2)Man(a1-6)]Man(b1-4)GlcNAc(b1-4)GlcNAc
# How it was run: as §1
# [11] = target: Fuc(a1-2)Gal(b1-3)[Fuc(a1-4)]GlcNAc(b1-3)[Fuc(a1-3)[Gal(b1-4)]GlcNAc(b1-6)]Gal(b1-4)Glc
# How it was run: as §1
# [12] = target: Fuc(a1-2)Gal(b1-3)[Fuc(a1-4)]GlcNAc(b1-3)[Gal(b1-4)GlcNAc(b1-6)]Gal(b1-4)Glc
# How it was run: as §1
# Fuc(a1-2)Gal(b1-4)Glc = target: Fuc(a1-2)Gal(b1-4)Glc
# How it was run: as §1
# Fuc(a1-2)Gal(b1-4)Glc6S = target: Fuc(a1-2)Gal(b1-4)Glc6S
# How it was run: as §1
# Fuc(a1-2)Gal(b1-4)GlcNAc = target: Fuc(a1-2)Gal(b1-4)GlcNAc
# How it was run: as §1
# [13] = target: Fuc(a1-2)Gal(b1-4)GlcNAc(b1-2)Man(a1-3)[Fuc(a1-2)Gal(b1-4)GlcNAc(b1-2)Man(a1-6)]Man(b1-4)GlcNAc(b1-4)GlcNAc
# How it was run: as §1
# [14] = target: Fuc(a1-2)Gal(b1-4)GlcNAc(b1-3)Gal(b1-4)GlcNAc
# How it was run: as §1
# [15] = target: Fuc(a1-2)Gal(b1-4)GlcNAc(b1-3)Gal(b1-4)GlcNAc(b1-3)Gal(b1-4)GlcNAc
# How it was run: as §1
# [16] = target: Fuc(a1-2)Gal(b1-4)GlcNAc(b1-3)GalNAc
# How it was run: as §1
# [17] = target: Fuc(a1-2)Gal(b1-4)GlcNAc6S
# How it was run: as §1
# [18] = target: Fuc(a1-2)Gal(b1-4)[Fuc(a1-3)]GlcNAc
# How it was run: as §1
# [19] = target: Fuc(a1-2)Gal(b1-4)[Fuc(a1-3)]GlcNAc(b1-2)Man(a1-3)[Fuc(a1-2)Gal(b1-4)[Fuc(a1-3)]GlcNAc(b1-2)Man(a1-6)]Man(b1-4)GlcNAc(b1-4)GlcNAc
# How it was run: as §1
# [20] = target: Fuc(a1-2)Gal(b1-4)[Fuc(a1-3)]GlcNAc(b1-3)Gal(b1-4)[Fuc(a1-3)]GlcNAc
# How it was run: as §1
# [21] = target: Fuc(a1-2)Gal(b1-4)[Fuc(a1-3)]GlcNAc(b1-3)Gal(b1-4)[Fuc(a1-3)]GlcNAc(b1-3)Gal(b1-4)[Fuc(a1-3)]GlcNAc
# How it was run: as §1
# Fuc(a1-2)Gal6S(b1-4)Glc = target: Fuc(a1-2)Gal6S(b1-4)Glc
# How it was run: as §1
# [22] = target: Fuc(a1-2)Gal6S(b1-4)Glc6S
# How it was run: as §1
# [23] = target: Fuc(a1-2)Gal6S(b1-4)GlcNAc
# How it was run: as §1
binder,measurement,setting,value
B1,glycan array binding signal (z-score),Fuc(a1-2)Gal,-0.052
same,glycan array binding signal (z-score),Fuc(a1-2)Gal(b1-3)GalNAc,-0.385
same,glycan array binding signal (z-score),[1],-0.299
same,glycan array binding signal (z-score),[2],-0.28
same,glycan array binding signal (z-score),[3],2.03
same,glycan array binding signal (z-score),[4],1.18
same,glycan array binding signal (z-score),[5],-0.52
same,glycan array binding signal (z-score),Fuc(a1-2)Gal(b1-3)GlcNAc,-0.574
same,glycan array binding signal (z-score),[6],1.52
same,glycan array binding signal (z-score),[7],0.862
same,glycan array binding signal (z-score),[8],-0.51
same,glycan array binding signal (z-score),[9],0.754
same,glycan array binding signal (z-score),[10],-0.82
same,glycan array binding signal (z-score),[11],-0.236
same,glycan array binding signal (z-score),[12],-1.42
same,glycan array binding signal (z-score),Fuc(a1-2)Gal(b1-4)Glc,0.125
same,glycan array binding signal (z-score),Fuc(a1-2)Gal(b1-4)Glc6S,-0.17
same,glycan array binding signal (z-score),Fuc(a1-2)Gal(b1-4)GlcNAc,0.041
same,glycan array binding signal (z-score),[13],0.195
same,glycan array binding signal (z-score),[14],-0.464
same,glycan array binding signal (z-score),[15],-0.799
same,glycan array binding signal (z-score),[16],0.824
same,glycan array binding signal (z-score),[17],-1
same,glycan array binding signal (z-score),[18],-0.328
same,glycan array binding signal (z-score),[19],0.36
same,glycan array binding signal (z-score),[20],0.152
same,glycan array binding signal (z-score),[21],0.151
same,glycan array binding signal (z-score),Fuc(a1-2)Gal6S(b1-4)Glc,-0.047
same,glycan array binding signal (z-score),[22],-0.03
same,glycan array binding signal (z-score),[23],-0.138

# A different layout for some results above.
binder	measurement	setting	value
B1	glycan array binding signal (z-score)	Fuc(a1-2)Gal(b1-3)GalNAc	-0.385
same	glycan array binding signal (z-score)	[1]	-0.299
